{
  "sequences": {"note": "The chains behind the UniProt entries cited, without tags or fusion partners. Where a name states a change or a piece, a line headed by the entry shows the natural chain unless it says otherwise.", "UniProt P15056, whole entry": "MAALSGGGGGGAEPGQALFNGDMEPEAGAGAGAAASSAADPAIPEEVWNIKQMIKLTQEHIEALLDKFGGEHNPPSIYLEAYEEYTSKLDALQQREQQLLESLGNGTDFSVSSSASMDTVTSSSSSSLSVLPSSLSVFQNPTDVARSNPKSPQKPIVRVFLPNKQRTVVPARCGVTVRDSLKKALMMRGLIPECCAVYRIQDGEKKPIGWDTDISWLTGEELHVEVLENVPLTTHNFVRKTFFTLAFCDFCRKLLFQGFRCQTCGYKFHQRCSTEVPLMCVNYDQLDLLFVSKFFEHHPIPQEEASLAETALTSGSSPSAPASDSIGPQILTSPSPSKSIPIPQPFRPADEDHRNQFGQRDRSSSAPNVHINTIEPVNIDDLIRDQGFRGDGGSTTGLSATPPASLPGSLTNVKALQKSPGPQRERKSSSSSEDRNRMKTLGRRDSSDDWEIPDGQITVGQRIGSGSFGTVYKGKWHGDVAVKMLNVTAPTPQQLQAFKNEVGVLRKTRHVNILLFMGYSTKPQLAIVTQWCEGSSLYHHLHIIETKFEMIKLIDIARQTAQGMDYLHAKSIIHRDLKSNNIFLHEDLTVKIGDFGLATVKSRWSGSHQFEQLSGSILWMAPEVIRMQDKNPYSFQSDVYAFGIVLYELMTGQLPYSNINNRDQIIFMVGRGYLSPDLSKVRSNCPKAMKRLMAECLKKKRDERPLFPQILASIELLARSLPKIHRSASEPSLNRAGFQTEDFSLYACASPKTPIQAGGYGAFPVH", "UniProt Q99622": "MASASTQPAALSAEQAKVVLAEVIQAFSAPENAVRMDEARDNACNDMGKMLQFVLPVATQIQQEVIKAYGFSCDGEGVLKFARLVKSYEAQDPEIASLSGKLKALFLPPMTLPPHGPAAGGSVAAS", "UniProt Q9H425": "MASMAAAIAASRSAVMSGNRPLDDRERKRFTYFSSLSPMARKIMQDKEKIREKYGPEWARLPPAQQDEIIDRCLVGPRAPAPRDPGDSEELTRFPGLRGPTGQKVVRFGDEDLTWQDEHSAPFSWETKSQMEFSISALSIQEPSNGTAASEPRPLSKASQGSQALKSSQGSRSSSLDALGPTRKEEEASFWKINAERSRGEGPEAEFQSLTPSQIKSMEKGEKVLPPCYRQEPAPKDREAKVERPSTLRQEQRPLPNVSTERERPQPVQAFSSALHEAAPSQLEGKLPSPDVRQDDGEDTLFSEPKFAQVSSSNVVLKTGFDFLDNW", "UniProt Q9BQ61": "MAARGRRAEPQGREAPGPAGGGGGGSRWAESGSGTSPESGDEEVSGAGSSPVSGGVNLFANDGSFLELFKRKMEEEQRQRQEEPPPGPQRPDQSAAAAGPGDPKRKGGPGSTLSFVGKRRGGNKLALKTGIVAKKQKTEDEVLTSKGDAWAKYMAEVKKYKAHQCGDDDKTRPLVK", "UniProt P36543, whole entry": "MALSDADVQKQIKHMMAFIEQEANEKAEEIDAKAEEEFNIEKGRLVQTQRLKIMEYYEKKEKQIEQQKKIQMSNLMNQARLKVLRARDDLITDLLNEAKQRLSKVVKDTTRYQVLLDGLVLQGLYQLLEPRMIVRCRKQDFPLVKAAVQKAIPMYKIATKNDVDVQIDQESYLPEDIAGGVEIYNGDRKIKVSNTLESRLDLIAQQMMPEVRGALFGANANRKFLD", "UniProt P00966": "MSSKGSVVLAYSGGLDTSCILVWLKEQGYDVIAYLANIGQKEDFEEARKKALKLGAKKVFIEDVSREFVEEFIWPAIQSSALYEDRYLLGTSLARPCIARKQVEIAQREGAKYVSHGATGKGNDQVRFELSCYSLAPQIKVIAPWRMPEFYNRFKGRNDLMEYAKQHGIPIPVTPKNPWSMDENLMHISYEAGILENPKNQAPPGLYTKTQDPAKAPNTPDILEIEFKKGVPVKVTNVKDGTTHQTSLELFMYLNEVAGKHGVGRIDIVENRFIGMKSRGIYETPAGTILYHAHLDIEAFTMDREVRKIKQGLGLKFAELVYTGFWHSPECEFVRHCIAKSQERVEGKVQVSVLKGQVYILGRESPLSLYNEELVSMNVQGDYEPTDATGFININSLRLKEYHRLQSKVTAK", "UniProt Q0VDD7": "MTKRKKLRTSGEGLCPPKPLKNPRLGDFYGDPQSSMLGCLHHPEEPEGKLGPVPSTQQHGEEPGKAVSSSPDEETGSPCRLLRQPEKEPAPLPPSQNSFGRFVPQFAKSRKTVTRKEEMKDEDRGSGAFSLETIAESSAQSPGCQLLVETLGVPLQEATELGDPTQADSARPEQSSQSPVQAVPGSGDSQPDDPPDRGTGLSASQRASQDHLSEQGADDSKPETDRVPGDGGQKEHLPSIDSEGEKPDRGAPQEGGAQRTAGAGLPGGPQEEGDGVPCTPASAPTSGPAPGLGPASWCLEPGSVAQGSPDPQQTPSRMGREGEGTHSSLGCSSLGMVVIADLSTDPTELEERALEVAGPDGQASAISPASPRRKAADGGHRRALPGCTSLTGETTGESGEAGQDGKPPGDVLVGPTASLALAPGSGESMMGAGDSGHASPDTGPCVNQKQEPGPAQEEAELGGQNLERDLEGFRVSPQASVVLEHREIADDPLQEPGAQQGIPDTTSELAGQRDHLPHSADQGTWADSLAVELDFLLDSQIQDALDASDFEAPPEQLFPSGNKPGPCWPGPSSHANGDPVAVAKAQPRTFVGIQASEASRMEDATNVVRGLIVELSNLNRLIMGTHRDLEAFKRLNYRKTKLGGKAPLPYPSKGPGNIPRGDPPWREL", "UniProt Q7L1Q6": "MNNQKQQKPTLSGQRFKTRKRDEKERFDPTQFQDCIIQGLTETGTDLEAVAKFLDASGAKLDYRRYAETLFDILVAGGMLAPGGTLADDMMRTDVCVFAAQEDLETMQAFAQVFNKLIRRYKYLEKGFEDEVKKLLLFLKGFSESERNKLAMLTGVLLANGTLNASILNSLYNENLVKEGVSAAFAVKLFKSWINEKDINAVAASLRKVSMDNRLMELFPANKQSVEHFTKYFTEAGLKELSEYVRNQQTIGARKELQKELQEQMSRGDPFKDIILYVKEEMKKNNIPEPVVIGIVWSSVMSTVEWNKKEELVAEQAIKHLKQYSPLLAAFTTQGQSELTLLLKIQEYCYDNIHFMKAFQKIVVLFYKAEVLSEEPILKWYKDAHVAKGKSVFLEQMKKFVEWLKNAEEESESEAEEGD", "UniProt O14867": "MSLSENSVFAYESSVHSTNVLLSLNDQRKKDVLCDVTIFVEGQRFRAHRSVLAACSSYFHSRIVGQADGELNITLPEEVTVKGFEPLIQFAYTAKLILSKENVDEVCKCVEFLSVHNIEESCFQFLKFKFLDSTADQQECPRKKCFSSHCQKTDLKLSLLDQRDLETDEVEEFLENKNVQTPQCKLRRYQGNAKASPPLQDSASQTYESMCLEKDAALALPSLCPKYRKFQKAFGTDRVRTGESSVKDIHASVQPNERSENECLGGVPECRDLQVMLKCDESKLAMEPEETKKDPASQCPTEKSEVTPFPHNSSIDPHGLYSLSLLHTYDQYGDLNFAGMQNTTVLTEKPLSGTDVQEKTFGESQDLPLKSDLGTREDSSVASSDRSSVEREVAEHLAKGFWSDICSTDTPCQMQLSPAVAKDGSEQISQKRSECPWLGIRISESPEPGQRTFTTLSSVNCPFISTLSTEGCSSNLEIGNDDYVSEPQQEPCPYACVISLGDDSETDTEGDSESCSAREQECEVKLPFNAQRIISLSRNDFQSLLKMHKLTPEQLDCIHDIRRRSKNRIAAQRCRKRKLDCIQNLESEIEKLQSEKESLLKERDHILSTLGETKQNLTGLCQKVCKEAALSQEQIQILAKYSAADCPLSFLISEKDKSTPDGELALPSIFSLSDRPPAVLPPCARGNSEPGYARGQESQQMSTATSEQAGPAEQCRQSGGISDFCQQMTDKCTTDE", "UniProt Q6QNY0": "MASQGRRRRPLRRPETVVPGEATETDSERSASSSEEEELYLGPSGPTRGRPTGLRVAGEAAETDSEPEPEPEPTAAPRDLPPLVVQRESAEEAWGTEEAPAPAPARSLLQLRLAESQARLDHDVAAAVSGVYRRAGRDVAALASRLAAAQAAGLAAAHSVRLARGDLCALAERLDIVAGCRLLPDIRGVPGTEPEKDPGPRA", "UniProt P49407": "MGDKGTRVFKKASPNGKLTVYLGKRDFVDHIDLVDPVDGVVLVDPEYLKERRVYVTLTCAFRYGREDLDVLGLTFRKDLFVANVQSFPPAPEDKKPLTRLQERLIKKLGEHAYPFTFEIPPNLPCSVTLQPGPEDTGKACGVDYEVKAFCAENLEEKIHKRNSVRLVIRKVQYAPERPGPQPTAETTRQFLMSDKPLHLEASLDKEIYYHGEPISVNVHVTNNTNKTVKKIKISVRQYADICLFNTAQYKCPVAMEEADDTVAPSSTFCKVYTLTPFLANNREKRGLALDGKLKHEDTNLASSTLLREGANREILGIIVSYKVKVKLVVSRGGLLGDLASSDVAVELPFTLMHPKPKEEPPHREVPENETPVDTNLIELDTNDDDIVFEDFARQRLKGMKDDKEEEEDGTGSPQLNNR", "UniProt P15336": "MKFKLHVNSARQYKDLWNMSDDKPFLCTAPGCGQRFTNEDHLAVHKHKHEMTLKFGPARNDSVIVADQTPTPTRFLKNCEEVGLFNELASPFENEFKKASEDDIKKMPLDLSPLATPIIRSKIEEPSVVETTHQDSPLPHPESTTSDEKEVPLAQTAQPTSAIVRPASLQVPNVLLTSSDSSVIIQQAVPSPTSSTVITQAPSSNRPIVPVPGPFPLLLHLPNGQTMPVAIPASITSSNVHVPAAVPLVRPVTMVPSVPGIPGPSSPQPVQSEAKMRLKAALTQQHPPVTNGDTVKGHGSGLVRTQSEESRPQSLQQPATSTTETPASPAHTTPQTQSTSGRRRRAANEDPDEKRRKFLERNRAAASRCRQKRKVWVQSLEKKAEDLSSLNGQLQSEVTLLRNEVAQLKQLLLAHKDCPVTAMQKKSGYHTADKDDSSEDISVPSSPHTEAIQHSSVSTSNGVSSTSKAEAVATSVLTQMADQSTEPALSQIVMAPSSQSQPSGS", "UniProt Q5T5Y3": "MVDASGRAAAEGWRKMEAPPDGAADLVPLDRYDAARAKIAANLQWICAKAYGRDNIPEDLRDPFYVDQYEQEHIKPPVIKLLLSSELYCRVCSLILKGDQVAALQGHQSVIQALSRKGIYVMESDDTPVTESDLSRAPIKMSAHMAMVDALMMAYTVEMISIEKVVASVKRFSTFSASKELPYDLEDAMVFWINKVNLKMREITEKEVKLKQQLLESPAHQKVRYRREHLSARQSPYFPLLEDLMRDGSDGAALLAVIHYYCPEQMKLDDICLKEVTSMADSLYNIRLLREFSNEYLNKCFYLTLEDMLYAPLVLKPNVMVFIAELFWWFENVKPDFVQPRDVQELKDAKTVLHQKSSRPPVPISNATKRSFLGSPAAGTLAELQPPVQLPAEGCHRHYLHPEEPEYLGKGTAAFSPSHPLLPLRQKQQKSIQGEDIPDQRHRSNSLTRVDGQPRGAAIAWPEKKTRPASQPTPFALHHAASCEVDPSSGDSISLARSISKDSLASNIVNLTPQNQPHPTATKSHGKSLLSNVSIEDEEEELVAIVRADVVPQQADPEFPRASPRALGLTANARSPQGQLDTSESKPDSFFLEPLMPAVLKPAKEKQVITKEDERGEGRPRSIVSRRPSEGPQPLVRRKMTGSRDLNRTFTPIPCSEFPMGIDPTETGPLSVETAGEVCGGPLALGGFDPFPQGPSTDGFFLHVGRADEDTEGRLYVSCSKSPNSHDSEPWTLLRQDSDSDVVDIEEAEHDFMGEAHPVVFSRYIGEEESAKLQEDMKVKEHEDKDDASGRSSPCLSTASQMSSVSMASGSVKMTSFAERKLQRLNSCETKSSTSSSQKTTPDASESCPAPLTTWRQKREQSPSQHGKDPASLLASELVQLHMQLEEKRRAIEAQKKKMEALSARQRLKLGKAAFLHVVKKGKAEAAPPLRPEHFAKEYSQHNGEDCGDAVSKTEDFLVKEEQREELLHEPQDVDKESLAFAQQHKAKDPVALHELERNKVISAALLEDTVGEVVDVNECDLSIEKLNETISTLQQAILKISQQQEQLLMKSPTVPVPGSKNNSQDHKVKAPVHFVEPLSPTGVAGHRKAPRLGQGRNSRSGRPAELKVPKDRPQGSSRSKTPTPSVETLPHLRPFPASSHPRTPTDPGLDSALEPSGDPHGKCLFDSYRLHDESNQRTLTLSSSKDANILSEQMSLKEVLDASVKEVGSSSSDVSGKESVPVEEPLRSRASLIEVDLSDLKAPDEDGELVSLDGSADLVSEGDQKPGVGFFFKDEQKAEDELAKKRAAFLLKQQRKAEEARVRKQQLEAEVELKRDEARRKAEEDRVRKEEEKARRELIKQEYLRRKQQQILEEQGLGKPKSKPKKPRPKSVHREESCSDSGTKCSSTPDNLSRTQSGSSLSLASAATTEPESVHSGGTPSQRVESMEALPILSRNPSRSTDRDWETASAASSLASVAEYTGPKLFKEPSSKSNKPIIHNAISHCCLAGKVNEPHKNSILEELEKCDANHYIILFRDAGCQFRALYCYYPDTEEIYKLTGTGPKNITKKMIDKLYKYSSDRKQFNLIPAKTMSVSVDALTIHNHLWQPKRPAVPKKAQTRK"},
  "source": "the supplement of paper PMC7666118",
  "note": "The other results are listed elsewhere or left out.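 Rule for the calls: active = dose-dependent thermal stabilisation significant by F-test of dose-response against flat model at 10% FDR; inactive = not significant.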",
  "data": [
    {"compound": "Nc1nc2c(ncn2[C@@H]2O[C@H](COP(=O)(O)OP(=O)(O)OP(=O)(O)O)[C@@H](O)[C@H]2O)c(=O)[nH]1", "test": "dose-dependent thermal stabilisation call (2D-TPP, DLPTP, 10% FDR) (binary (1 = stabilised)); higher = stabilised by the compound", "conditions": "system: Jurkat gel-filtered lysate; concentration range 1-500 µM", "procedure": "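2D thermal proteome profiling in gel-filtered Jurkat E6.1 lysate (2 mg/ml) treated with NaGTP (0, 1, 10, 100, 500 uM) for 10 min at room temperature, then heated 3 min at one of 12 temperatures (42-63.9 C). Soluble protein was quantified by TMT10 MS. The value is the DLPTP call of the paper: dose-dependent thermal stabilisation over all temperatures at 10% FDR (F-test of a dose-response against a flat model); one experiment, one call per tested protein.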", "values": [
      {"target": "C19orf54 (UniProt Q5BKX5)", "dose-dependent thermal stabilisation call": "active: 1"},
      {"target": "ATG5 (UniProt Q9H1Y0)", "dose-dependent thermal stabilisation call": "inactive: 0"},
      {"target": "BRAF (UniProt P15056)", "dose-dependent thermal stabilisation call": "active: 1"},
      {"target": "AUTS2 (UniProt Q8WXX7)", "dose-dependent thermal stabilisation call": "inactive: 0"},
      {"target": "BROX (UniProt Q5VW32)", "dose-dependent thermal stabilisation call": "active: 1"},
      {"target": "ATXN10 (UniProt Q9UBB4)", "dose-dependent thermal stabilisation call": "inactive: 0"},
      {"target": "C12orf57 (UniProt Q99622)", "dose-dependent thermal stabilisation call": "inactive: 0"},
      {"target": "C1orf198 (UniProt Q9H425)", "dose-dependent thermal stabilisation call": "inactive: 0"},
      {"target": "C19orf43 (UniProt Q9BQ61)", "dose-dependent thermal stabilisation call": "inactive: 0"},
      {"target": "ATP6V1E1 (UniProt P36543)", "dose-dependent thermal stabilisation call": "inactive: 0"},
      {"target": "ASS1 (UniProt P00966)", "dose-dependent thermal stabilisation call": "inactive: 0"},
      {"target": "C19orf57 (UniProt Q0VDD7)", "dose-dependent thermal stabilisation call": "inactive: 0"},
      {"target": "BRD3 (UniProt Q15059)", "dose-dependent thermal stabilisation call": "inactive: 0"},
      {"target": "ATP6V1F (UniProt Q16864)", "dose-dependent thermal stabilisation call": "inactive: 0"},
      {"target": "ARPC1B (UniProt O15143)", "dose-dependent thermal stabilisation call": "active: 1"},
      {"target": "BZW1 (UniProt Q7L1Q6)", "dose-dependent thermal stabilisation call": "inactive: 0"},
      {"target": "BPHL (UniProt Q86WA6)", "dose-dependent thermal stabilisation call": "inactive: 0"},
      {"target": "ATP5B (UniProt P06576)", "dose-dependent thermal stabilisation call": "active: 1"},
      {"target": "ATP6V1H (UniProt Q9UI12)", "dose-dependent thermal stabilisation call": "inactive: 0"},
      {"target": "BACH1 (UniProt O14867)", "dose-dependent thermal stabilisation call": "inactive: 0"},
      {"target": "ASAP2 (UniProt O43150)", "dose-dependent thermal stabilisation call": "inactive: 0"},
      {"target": "ARMC6 (UniProt Q6NXE6)", "dose-dependent thermal stabilisation call": "active: 1"},
      {"target": "BLOC1S3 (UniProt Q6QNY0)", "dose-dependent thermal stabilisation call": "inactive: 0"},
      {"target": "BAP1 (UniProt Q92560)", "dose-dependent thermal stabilisation call": "inactive: 0"},
      {"target": "C10orf76 (UniProt Q5T2E6)", "dose-dependent thermal stabilisation call": "inactive: 0"},
      {"target": "C19orf53 (UniProt Q9UNZ5)", "dose-dependent thermal stabilisation call": "inactive: 0"},
      {"target": "BAG6 (UniProt P46379)", "dose-dependent thermal stabilisation call": "active: 1"},
      {"target": "C9orf40 (UniProt Q8IXQ3)", "dose-dependent thermal stabilisation call": "inactive: 0"},
      {"target": "BLVRA (UniProt P53004)", "dose-dependent thermal stabilisation call": "inactive: 0"},
      {"target": "CAMK4 (UniProt Q16566)", "dose-dependent thermal stabilisation call": "inactive: 0"},
      {"target": "C17orf75 (UniProt Q9HAS0)", "dose-dependent thermal stabilisation call": "inactive: 0"},
      {"target": "ARHGAP45 (UniProt Q92619)", "dose-dependent thermal stabilisation call": "inactive: 0"},
      {"target": "BLOC1S4 (UniProt Q9NUP1)", "dose-dependent thermal stabilisation call": "inactive: 0"},
      {"target": "ARL8A (UniProt Q96BM9)", "dose-dependent thermal stabilisation call": "active: 1"},
      {"target": "ARRB1 (UniProt P49407)", "dose-dependent thermal stabilisation call": "inactive: 0"},
      {"target": "ATF2 (UniProt P15336)", "dose-dependent thermal stabilisation call": "inactive: 0"},
      {"target": "CARMIL2 (UniProt Q6F5E8)", "dose-dependent thermal stabilisation call": "inactive: 0"},
      {"target": "CARS (UniProt P49589)", "dose-dependent thermal stabilisation call": "inactive: 0"},
      {"target": "CAMSAP1 (UniProt Q5T5Y3)", "dose-dependent thermal stabilisation call": "inactive: 0"},
      {"target": "ASL (UniProt P04424)", "dose-dependent thermal stabilisation call": "inactive: 0"}
    ]}
  ]
}
